The list shows a part of the results. Repeats are few or missing, and single values can be far off.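 Test system: a mixed pool of 41 HAP1 clones in which 61 cancer-associated proteins carry fluorescent tags inserted into introns, and each clone is identified from its image pattern. Read-outs are compared with DMSO-treated control wells. The BRD4 degrader dBET6 served as the positive control.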
How the values were obtained:
[1] = target: XPO1 (intron 15 mScarlet tag, HAP1) (UniProt O14980); test: XPO1 fluorescence intensity change vs DMSO (log2 fold change); higher = more XPO1 protein; conditions: 6 h
[2] = target: BRD4 (intron 10 mScarlet tag, HAP1) (UniProt O60885); test: BRD4 median nuclear fluorescence intensity change vs DMSO (log2 fold change); higher = more BRD4 protein; conditions: 6 h

Protein sequences, listed by entry. Tags and fused reporters are not part of them.
UniProt O14980, whole entry: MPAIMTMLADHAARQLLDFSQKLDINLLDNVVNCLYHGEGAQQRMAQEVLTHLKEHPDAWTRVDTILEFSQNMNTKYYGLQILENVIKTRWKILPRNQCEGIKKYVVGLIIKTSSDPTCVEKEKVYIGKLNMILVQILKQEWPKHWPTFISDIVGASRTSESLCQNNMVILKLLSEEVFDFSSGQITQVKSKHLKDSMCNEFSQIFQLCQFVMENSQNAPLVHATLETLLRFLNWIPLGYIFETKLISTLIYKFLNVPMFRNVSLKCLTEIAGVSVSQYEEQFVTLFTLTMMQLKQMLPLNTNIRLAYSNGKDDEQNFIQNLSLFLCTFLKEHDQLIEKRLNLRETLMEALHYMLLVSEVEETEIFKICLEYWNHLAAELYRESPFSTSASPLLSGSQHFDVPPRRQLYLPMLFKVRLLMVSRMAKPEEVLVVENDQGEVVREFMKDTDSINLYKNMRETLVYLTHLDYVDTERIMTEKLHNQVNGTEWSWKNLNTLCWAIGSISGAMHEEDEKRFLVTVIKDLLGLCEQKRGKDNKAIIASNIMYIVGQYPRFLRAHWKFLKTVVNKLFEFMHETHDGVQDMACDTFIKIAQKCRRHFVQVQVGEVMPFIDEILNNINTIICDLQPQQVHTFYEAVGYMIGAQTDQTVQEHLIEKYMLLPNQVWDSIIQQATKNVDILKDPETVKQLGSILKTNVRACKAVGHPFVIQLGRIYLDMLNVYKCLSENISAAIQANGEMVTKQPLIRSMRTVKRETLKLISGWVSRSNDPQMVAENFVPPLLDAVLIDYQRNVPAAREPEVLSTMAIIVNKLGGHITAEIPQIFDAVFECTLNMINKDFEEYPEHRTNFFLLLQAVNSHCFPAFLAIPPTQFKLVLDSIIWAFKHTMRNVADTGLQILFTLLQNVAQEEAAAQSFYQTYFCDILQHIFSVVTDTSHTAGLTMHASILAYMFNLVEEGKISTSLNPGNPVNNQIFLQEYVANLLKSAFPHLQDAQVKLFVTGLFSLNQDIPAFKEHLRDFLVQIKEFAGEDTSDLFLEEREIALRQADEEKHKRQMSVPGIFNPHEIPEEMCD

SMILES | XPO1 fluorescence intensity change (log2) [1] | BRD4 median nuclear fluorescence intensity change (log2) [2]
CN(Cc1cnn(C)c1)C(=O)c1ccc(NC(=O)c2ccco2)s1 (10 µM) | 0.085 | 0.0109
COc1ccc(C(=O)Nc2cccc(/C=C/C(=O)c3ccc(O)c(CCCl)c3)c2)cc1 (10 µM) | -0.746 | 0.0262
Cc1ccc(C(C)N(C)c2ncnc3ccsc23)s1 (centres undefined) (10 µM) | 0.00133 | 0.095
Cn1nc(C(=O)Nc2nc(CN3CCCC3)cs2)c2ccccc2c1=O (1 µM) | -0.013 | 0.0408
O=C(Nc1nc(-c2ccccn2)cs1)c1ccc2c(c1)OCCCO2 (10 µM) | -0.243 | 0.063
CCOc1ccc(-n2c(=O)c3ccc(Cl)cc3n3c(CCl)nnc23)cc1 (1 µM) | 0.0657 | 0.0289
COc1ccc(CNS(=O)(=O)c2ccc(OC)c3ccccc23)cc1 (10 µM) | 0.011 | 0.0728
COc1ccc(C(CC(=O)c2ccco2)Sc2cccc3cccnc23)cc1OC (centres undefined) (1 µM) | 0.104 | -0.0365
FC(F)(F)c1ccc(-n2nnnc2CCl)cc1 (10 µM) | -0.254 | -0.0364
Nc1ccc(C(=O)Nc2cccnc2)cc1 (10 µM) | 0.0212 | 0.198
COc1ccc2c(c1)CCCN2C(=O)c1cc(Cl)cc(Cl)c1 (10 µM) | -0.162 | 0.1
O=C(/C=C/c1ccccc1Cl)c1ccc(O)c(CCCl)c1 (10 µM) | 0.0937 | 1.59e-05
C/C(=N\Nc1nc2ccccc2n1C)c1ccc2c(c1)CCC(=O)N2 (10 µM) | -0.033 | -0.0127
COc1ccc(N(Cc2cccs2)S(=O)(=O)c2cnn(C)c2)cc1 (10 µM) | 0.0528 | 0.0122
N#Cc1ccc(NC(=O)C2(C(F)(F)F)CCN(Cc3ccccc3)C2)cc1 (centres undefined) (10 µM) | -0.0326 | 0.00466
CC(C)n1c(SCC(=O)Nc2ccc3c(c2)CCC3)nc2ccccc2c1=O (10 µM) | -0.068 | 0.0303
COc1ccc(-c2cc(-c3c(O)ccc4ccccc34)[nH]n2)cc1OC (10 µM) | -0.0366 | 0.00518
Cc1sc2nc(CN3CCCCC3)nc(Sc3nnnn3C3CC3)c2c1C (10 µM) | 0.487 | -0.116
Nc1ccn([C@@H]2O[C@H](CO)[C@@H](O)C2(F)F)c(=O)n1 [gemcitabine] (1 µM) | 0.0268 | -0.0421
CSCCC(=O)Nc1ccc(Oc2ccccc2Cl)cc1 (10 µM) | -0.01 | 0.0376
COC(=O)C1=C(CCl)N(c2ccc(C)cc2)C(=O)NC1c1ccccc1 (centres undefined) (10 µM) | -0.147 | 0.000972

Record cards, as listed above:
O=C(/C=C/c1ccccc1Cl)c1ccc(O)c(CCCl)c1 (10 µM) is listed as XPO1 fluorescence intensity change (log2) [1]: 0.0937; BRD4 median nuclear fluorescence intensity change (log2) [2]: 1.59e-05
CCOc1ccc(-n2c(=O)c3ccc(Cl)cc3n3c(CCl)nnc23)cc1 (1 µM) is listed as XPO1 fluorescence intensity change (log2) [1]: 0.0657; BRD4 median nuclear fluorescence intensity change (log2) [2]: 0.0289
CSCCC(=O)Nc1ccc(Oc2ccccc2Cl)cc1 (10 µM) is listed as XPO1 fluorescence intensity change (log2) [1]: -0.01; BRD4 median nuclear fluorescence intensity change (log2) [2]: 0.0376

Further structures follow.

SMILES | XPO1 fluorescence intensity change (log2) [1] | BRD4 median nuclear fluorescence intensity change (log2) [2]
C[C@@H]1COCCN1c1cc(C2([S@](C)(=N)=O)CC2)nc(-c2cc[nH]c3nccc2-3)n1 (20 µM) | 0.00394 | -0.0855
Cc1nn(-c2nc3ccccc3[nH]2)c(=O)c2ccccc12 (1 µM) | 0.103 | -0.0541
O=C(NCC#Cc1cccc(C(F)(F)F)c1)c1cccc(Nc2ncccn2)c1 (10 µM) | -0.124 | 0.163
CNS(=O)(=O)c1ccc(C(=O)Nc2cc(CCc3ccccc3)ccn2)cc1 (10 µM) | -0.13 | 0.00794
Cc1cc(C)c(NC(=O)c2cnc(C)cn2)c(Cl)c1 (10 µM) | -0.0914 | -0.0631
COc1ccc(-n2ccc(C(=O)Nc3ccnn3-c3ccccc3C)n2)cc1 (0.1 µM) | 0.0888 | 0.0317
COc1ccc(-n2c(-c3ccccc3)c[n+]3ccccc23)cc1 (10 µM) | -0.0214 | 0.122
O=c1c2ccccc2nc(CCl)n1Cc1ccco1 (10 µM) | -0.162 | 0.099
O=C(COc1ccccc1Cl)Nc1ccc(C(=O)Nc2cccnc2)cc1 (1 µM) | -0.0276 | 0.0646
CCc1cc(NC(=O)Cc2ccn(-c3ccc(F)cc3)n2)n[nH]1 (1 µM) | -0.0259 | -0.0944
CN(Cc1cnn(Cc2ccccc2)c1)C(=O)c1n[nH]c2ccccc12 (10 µM) | 0.338 | 0.0222
Cc1ccccc1-n1c(C)cc(C(=O)Cn2nc(-c3ccco3)oc2=O)c1C (1 µM) | -0.154 | -0.0598
CC(C)n1ncc2cc(C(=O)Nc3cccc4c3CCCC4)cnc21 (10 µM) | -0.0271 | -0.0451
CC1(C)Cc2cccc(OCC(=O)Nc3nc4c(F)cc(F)cc4s3)c2O1 (1 µM) | -0.157 | -0.15
CN(C)c1ccc(C(=NC(=O)c2cccc(S(=O)(=O)N3CC4(C)CC3CC(C)(C)C4)c2)c2ccc(N(C)C)cc2)cc1 (centres undefined) (10 µM) | -0.137 | -0.000554
CCOC(=O)c1c(-c2cccs2)csc1NC(=O)CCCl (10 µM) | -0.234 | 0.00914
NC(=O)Nc1cc(-c2cccc(F)c2)sc1C(=O)N[C@H]1CCCNC1 (20 µM) | 0.208 | 0.0649
c1ccc(-c2nn(-c3ccccc3)[n+](-c3ccccc3)n2)cc1 (10 µM) | 0.031 | -0.0352
O=C(NCc1noc(CCl)n1)c1ccccc1 (1 µM) | -0.111 | -0.0746
COc1ccsc1C(=O)Nc1nc(-c2ccccc2)c(-c2nccn2C)s1 (10 µM) | -0.103 | 0.145
C[C@@H](NC(=O)c1ncnc(N)c1Cl)c1ncc(C(=O)Nc2cc(C(F)(F)F)c(Cl)cn2)s1 (10 µM) | -0.0912 | 0.00671
